About 770 (0.35%) of roughly 220,000 compounds were called active. The shares of active, inactive and inconclusive entries below differ from those in the screen. No stated cut-off is given here; in the data, active means binding response below about 49% or above about 150%; inconclusive means no clear call, values can overlap the other calls; inactive means in between.
molecular target: Guanine nucleotide-binding protein G(o) subunit alpha (Homo sapiens) (UniProt P09471); assay: RGS7-Galphao binding modulators, primary screen, biochemical, multiplexed bead flow cytometry (AID 1439); conditions: at 10 µM, actives lie on both sides;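 further: fluorescent Galphao held in activated GDP-AlF4 state binding bead-coupled RGS7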

Sequences of proteins named here, by UniProt entry; tags and fusion partners are left off.
UniProt P09471, whole entry, looked up: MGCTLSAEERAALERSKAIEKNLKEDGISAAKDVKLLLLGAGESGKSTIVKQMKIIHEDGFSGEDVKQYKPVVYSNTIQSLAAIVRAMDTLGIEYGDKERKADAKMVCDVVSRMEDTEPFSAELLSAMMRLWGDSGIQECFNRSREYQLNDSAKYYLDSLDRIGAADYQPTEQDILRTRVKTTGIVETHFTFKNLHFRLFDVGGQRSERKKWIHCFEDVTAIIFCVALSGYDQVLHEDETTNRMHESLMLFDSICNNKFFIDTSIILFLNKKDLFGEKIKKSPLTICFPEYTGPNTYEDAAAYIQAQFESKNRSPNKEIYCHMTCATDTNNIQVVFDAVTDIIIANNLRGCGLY

SMILES	binding response (% of control)
Cc1ccc(-c2noc(CN(C)C(=O)Nc3ccc(F)cc3)n2)cc1	inconclusive: 105%
CC1=NN(c2ccccc2)C(=O)C1C(=O)c1cc([N+](=O)[O-])cc([N+](=O)[O-])c1 (stereo not given)	inactive: 104%
COc1ccc(Nc2cc(C)nc(N)n2)cc1	inconclusive: 106%
CN(C)CCOC(=O)/C(=C/c1cn(C)c2ccccc12)NC(=O)c1ccccc1	inconclusive: 72%
O=C(COC(=O)c1ccccc1)NCc1cccs1	inactive: 102%
Nc1nc(Nc2ccccc2)sc1C(=O)c1ccccc1	inconclusive: 102%
O=C(NCCCCc1ccccc1)C1CC(c2cccc(F)c2)=NO1 (stereo not given)	inconclusive: 111%
Cc1ccc(F)c(C2C3C=CCC(c4cccc(-c5ccc(N(C)C)cc5)c4)C3C(=O)N2Cc2ccccc2)c1 (stereo not given)	inconclusive: 69.9%
CCNc1nc(NCC)nc(OCC(=O)O)n1	inconclusive: 104%
CCN(CC)C(=O)c1sc(NC(=O)C(C)C)c(C#N)c1C	inactive: 112%
CC(=O)SC1CC(=O)N(c2c(C)cccc2C)C1=O (stereo not given)	inconclusive: 119%
Cc1[nH]n(-c2ccccc2)c(=S)c1C=NCCCN=Cc1c(C)[nH]n(-c2ccccc2)c1=S	inactive: 94.7%
O=C1NC(=Nc2cccnc2)S/C1=C/c1ccc(F)cc1	inconclusive: 107%
Cc1ccccc1Oc1nc2c(C)cccn2c(=O)c1/C=C(\C#N)C(=O)Nc1c(C)n(C)n(-c2ccccc2)c1=O	inactive: 98.7%
CC(=O)c1c(C)[nH]c(C(=O)CN2C(=O)NC(C)(c3ccc(C)cc3)C2=O)c1C (stereo not given)	inactive: 99.1%
Clc1ccc(C2[C@H]3CN(Cc4ccc(-c5ccccc5)cc4)[C@H](c4ccccc4)C34CC2(c2ccccc2)C4)cn1 (stereo not given in full)	inconclusive: 82%
COc1ccc(-n2c3c(cc(C(=O)NNc4ccccc4)c2=O)C(=O)CC(C)(C)C3)cc1	active: 47.3%
N/C(=N\OC(=O)CCN1C(=O)c2ccccc2C1=O)c1ccccn1	inconclusive: 131%
CCOC(=O)/C(C#N)=N\Nc1cc(Cl)ccc1OC	inconclusive: 128%
OC(COc1ccccc1)CN1CCN(CC(O)COc2ccccc2)CC1 (stereo not given)	inconclusive: 85.1%
Cc1ccc(OCC(=O)N/N=C/c2cccn2C)cc1C	inconclusive: -23.7%
Cc1ccsc1/C=N/NC(=O)CN1CCN(Cc2ccccc2)CC1	inconclusive: 64.2%
CCOC(=O)c1c(NC(=O)CN2CCCc3ccccc32)sc(C)c1CC	inactive: 95.7%

SMILES	binding response (% of control)
COc1ccc(C(=O)CC(=O)C(=O)NCCc2cccc(C)c2)cc1	inactive: 97.7%
COc1ccc(/C=C/c2nnc(NC(=O)CC(C)C)s2)cc1	inconclusive: 104%
CC1(C)Cc2c(sc(NC(=O)c3ccco3)c2C#N)CO1	active: -34.6%
Cc1nn(-c2ccccc2)nc1CNC(=O)C1CC1	inconclusive: 98.7%
CCOC(=O)C1CCN(S(=O)(=O)c2ccc(-c3cc(C(F)(F)F)n(C)n3)s2)CC1	inconclusive: 115%
OCCNc1nc(Nc2cccc(O)c2)nc2ccccc12	inconclusive: 88.5%
O=C(Cc1csc(N2CCOCC2)n1)N/N=C/c1ccc(O)c(O)c1O	inconclusive: -16.9%
CC(C)Cc1cc(C(=O)N2CCC(N3CCC(C(=O)NC4CC4)CC3)CC2)n[nH]1	inactive: 94.7%
CCCCSc1ncc(C(=O)OCC)c(N)n1	inactive: 96.5%
CC(C)(O)C#Cc1ccc(CN2CCN(CCc3ccccc3)C(CCO)C2)s1 (stereo not given)	inactive: 100%
COc1cc(NS(=O)(=O)c2ccc(NC(=S)NC(=O)c3ccco3)cc2)ncn1	inactive: 101%
Cc1ccc(NC(=O)CCCc2nc3ccccc3s2)c(O)c1	inconclusive: 117%
O=C(COC(=O)c1ccc2c(c1)OCCO2)Nc1cc(S(=O)(=O)N2CCOCC2)ccc1Cl	inconclusive: 94.1%
CC(=O)NC1=NN(C(C)=O)C(c2ccco2)S1 (stereo not given)	inconclusive: 114%
CN(CCOC(=O)CN1C(=O)c2ccccc2C1=O)C1=NS(=O)(=O)c2ccccc21	inconclusive: 89.7%
O=C(COc1ccccc1[N+](=O)[O-])Nc1ccc(Br)cc1	inconclusive: 25.8%
S=c1[nH]c(-c2ccccc2)cn1/N=C/c1ccncc1	inconclusive: 110%
CON/C=N/C(=S)Nc1ncc(C(F)(F)F)cc1Cl	inconclusive: 101%
Cc1ccc2nc(NC(=O)CC3Oc4ccccc4NC3=O)sc2c1 (stereo not given)	inconclusive: 138%
CCCCC(=O)NC(=S)Nc1nnn(CCC)n1	inactive: 96%
O=c1c2ccccc2c(C=Nc2ccc(S(=O)(=O)Nc3ncccn3)cc2)c(O)n1-c1cccc(Cl)c1	inconclusive: 117%
CN(C(=O)c1ccc(OC2CCN(C(=O)c3cccnc3)CC2)cc1)C1CCCCC1	inactive: 99.7%
O=C1C2C(C(=O)N1c1ccccc1)N1CCCN1C2c1ccccc1 (stereo not given)	inconclusive: 115%

SMILES	binding response (% of control)
CC(C)CCN1CCN(Cc2cn[nH]c2C2CCCCC2)CC1CCO (stereo not given)	inconclusive: 111%
Cc1nc(-c2ccccc2)sc1C(=O)O	inconclusive: 96.1%
Cn1c(SCC(=O)c2ccc(O)c(O)c2)nnc1-c1cccs1	inconclusive: 158%
CN(C)c1nc(SCC#N)nc(N(C)C)n1	inactive: 115%
O=C(O)c1ccc(-c2nc3ccccc3s2)o1	inconclusive: 117%
CCOC(=O)c1ccc(-n2c(O)c(/C=N/NC(=O)C3COc4ccccc4O3)c3ccccc3c2=O)cc1 (stereo not given)	inactive: 107%
Cc1cc(N2CCN(C)CC2)nc2ccc(NC(=S)N3CCN(c4cccc(Cl)c4)CC3)cc12	inconclusive: 98%
CN(C)c1ccc(/C=N/n2c(-c3cccnc3)n[nH]c2=S)cc1	inconclusive: 97.7%
N#Cc1c(Cl)nc2c(c1C#N)CCCC2	inconclusive: 198%
O=c1oc2ccccc2c(N2CCC(c3ccccc3)CC2)c1[N+](=O)[O-]	inconclusive: 103%
Cn1nc(C(F)(F)F)c2cc(C(=O)Nc3ccc(C(F)(F)F)cc3)sc21	inconclusive: 106%
O=C(Cc1ccc(F)cc1)Nc1nnc(SCC(=O)N2CCCCC2)s1	inactive: 94.9%
CCN1CCC(NC(=O)Nc2ccccc2C(=O)OC)CC1	inconclusive: 100%
COc1n[nH]c(C(=O)Nc2nc3ccccc3s2)c1[N+](=O)[O-]	inconclusive: 125%
C(=N\N1CCN(Cc2ccccc2)CC1)/c1ccccc1	inconclusive: 97.7%
CN(C)c1ccc(P(=O)(COc2ccc([N+](=O)[O-])cc2)c2ccc(N(C)C)cc2)cc1	inconclusive: 99.7%
CCOC(=O)C1=C(c2ccccc2)Nc2ncnn2C1c1cccc(O)c1 (stereo not given)	inconclusive: 67.9%
CC1Cc2cc(/C=C3/SC(N4CCC(C(N)=O)CC4)=NC3=O)ccc2O1 (stereo not given)	inconclusive: 84.8%
CCOC(=O)C1=C(O)/C(=C\c2ccc(O)c(OCC)c2)N=C1C	inconclusive: 72.4%
CCOc1ccc(-c2noc(-c3cccnc3)n2)cc1OCC	inconclusive: 88.2%
COc1ccccc1NC(=O)Cn1c(C)cc(=O)c2cccc(OC)c21	inconclusive: 123%
Cc1ccc(OC(=O)c2c(C)nn(-c3ccccc3)c2C)cc1	inconclusive: 103%
COC(=O)CCCC1=CC2=C(c3ccccc3)C(=O)C(C)(OC(=O)C3CCCC3)C(=O)C2=CN1Cc1ccco1 (stereo not given)	inconclusive: 106%

SMILES	binding response (% of control)
COc1cccc(-c2nnc(SCC3CNC(=O)O3)n2-c2ccc(Cl)cc2)c1 (stereo not given)	inactive: 104%
COc1ccccc1C/C(N)=N/OC(=O)/C=C/c1ccccc1	inactive: 98.9%
Cc1c(C)c(C)c2[nH]c(=S)[nH]c2c1C	inconclusive: 124%
O=c1c2c(ncn2C2CCCC2)n(Cc2ccccc2)c(=O)n1CCOc1ccccc1	inactive: 101%
O=C(CN1CCN(c2ccccc2)CC1)Nc1ccc2c(c1)OCCO2	inconclusive: 84.6%
C=C1SC(=Nc2c(C)cc(C)cc2C)N(C(=O)c2sc3ccccc3c2Cl)C12CCCCC2	inconclusive: 18.8%
C=C(C)CSc1cc(C)nc2c(-c3ccccc3)c(C)nn12	inconclusive: 128%
COc1cc(O)c(C(CC(=O)N2CCCC(C)C2)c2ccc3c(c2)OCO3)c(OC)c1 (stereo not given)	inconclusive: 99.9%
O=C(Oc1cc(Cl)cc(Cl)c1)c1cnc2n(c1=O)CCS2	inconclusive: 54%
Cc1ccc(C)c(NS(=O)(=O)c2cc(C(=O)N3CCCC3)ccc2Cl)c1	inactive: 96.5%
Nc1nc2ccccc2cc1S(=O)(=O)c1ccccc1	inconclusive: 104%
Oc1cc2c(cc1O)C1c3ccc(O)c(O)c3OCC1(O)C2 (stereo not given)	active: 32%
Cc1cc(Oc2ccc(Cl)cc2)nc(-c2ccccn2)n1	inconclusive: 110%
CCOc1cc(/C=C2/SC(=S)N(C)C2=O)ccc1Oc1ccc([N+](=O)[O-])cc1[N+](=O)[O-]	inactive: 102%
COc1cc(C(=O)C(=O)c2cc(OC)c(O)c(OC)c2)cc(OC)c1O	inconclusive: 45.5%
CNc1nnc(Sc2ncccc2[N+](=O)[O-])s1	inconclusive: 91.3%
CN1C(=O)NC(c2ccc(O)cc2)C2=C1CN(c1ccc(O)cc1)C2=O (stereo not given)	inconclusive: 92.6%
COCCOC(=O)c1c(C)oc2ccc(NS(=O)(=O)c3ccc(F)cc3)cc12	inconclusive: 112%
Cc1cc(O)c(C(C)C)cc1NC(=O)Nc1cccc2ccccc12	inconclusive: 57.8%
CC1CCC/C(=N/Nc2nc3ccccc3s2)C1 (stereo not given)	inconclusive: 98%
CC1(C)CC2(CCCN(C(=S)Nc3ccccc3)C2)CCO1 (stereo not given)	inconclusive: 110%

Of the compounds above, seven have an aryl thioether with sulfur outside any ring:
SMILES	binding response (% of control)
CCCCSc1ncc(C(=O)OCC)c(N)n1	inactive: 96.5%
Cn1c(SCC(=O)c2ccc(O)c(O)c2)nnc1-c1cccs1	inconclusive: 158%
CN(C)c1nc(SCC#N)nc(N(C)C)n1	inactive: 115%
O=C(Cc1ccc(F)cc1)Nc1nnc(SCC(=O)N2CCCCC2)s1	inactive: 94.9%
COc1cccc(-c2nnc(SCC3CNC(=O)O3)n2-c2ccc(Cl)cc2)c1 (stereo not given)	inactive: 104%
C=C(C)CSc1cc(C)nc2c(-c3ccccc3)c(C)nn12	inconclusive: 128%
CNc1nnc(Sc2ncccc2[N+](=O)[O-])s1	inconclusive: 91.3%

— PubChem BioAssay AID1439 (NMMLSC, 2008)
